The other results are listed elsewhere or left out.

Amino acid sequences for entries named in this document (tags omitted). A change or cut given only in a name is not applied to a line headed by its entry.
UniProt Q9H8M5: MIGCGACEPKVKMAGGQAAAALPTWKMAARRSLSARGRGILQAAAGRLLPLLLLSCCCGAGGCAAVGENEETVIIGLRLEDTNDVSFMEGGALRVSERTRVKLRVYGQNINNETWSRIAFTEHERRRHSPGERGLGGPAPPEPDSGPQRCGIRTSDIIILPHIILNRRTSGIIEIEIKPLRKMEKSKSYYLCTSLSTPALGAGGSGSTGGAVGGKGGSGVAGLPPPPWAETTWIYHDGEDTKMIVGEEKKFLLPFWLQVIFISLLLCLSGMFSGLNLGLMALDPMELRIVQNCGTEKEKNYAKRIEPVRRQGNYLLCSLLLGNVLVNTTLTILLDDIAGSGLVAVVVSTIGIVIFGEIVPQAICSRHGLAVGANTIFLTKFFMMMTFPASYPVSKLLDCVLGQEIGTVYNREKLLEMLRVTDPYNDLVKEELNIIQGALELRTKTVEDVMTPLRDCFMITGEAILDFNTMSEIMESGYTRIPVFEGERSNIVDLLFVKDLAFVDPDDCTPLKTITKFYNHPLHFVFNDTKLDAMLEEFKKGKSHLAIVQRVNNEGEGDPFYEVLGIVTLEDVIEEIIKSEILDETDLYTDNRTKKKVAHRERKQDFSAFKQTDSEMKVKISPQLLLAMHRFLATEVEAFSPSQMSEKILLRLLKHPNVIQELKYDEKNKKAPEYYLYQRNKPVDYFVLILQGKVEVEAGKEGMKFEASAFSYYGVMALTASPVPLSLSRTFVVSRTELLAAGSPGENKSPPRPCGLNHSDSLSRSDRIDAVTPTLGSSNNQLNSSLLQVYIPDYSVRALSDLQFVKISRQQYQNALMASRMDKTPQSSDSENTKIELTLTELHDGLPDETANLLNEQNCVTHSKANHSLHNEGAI
UniProt Q96I36: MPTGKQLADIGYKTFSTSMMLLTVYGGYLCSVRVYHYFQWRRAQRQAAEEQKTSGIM
UniProt Q5TA50: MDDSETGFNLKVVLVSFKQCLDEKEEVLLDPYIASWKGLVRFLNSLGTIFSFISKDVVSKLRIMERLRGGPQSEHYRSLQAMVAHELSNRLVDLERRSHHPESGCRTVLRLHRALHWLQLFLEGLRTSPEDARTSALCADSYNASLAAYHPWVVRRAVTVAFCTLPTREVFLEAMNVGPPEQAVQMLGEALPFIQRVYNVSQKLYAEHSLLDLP
UniProt Q17RY0: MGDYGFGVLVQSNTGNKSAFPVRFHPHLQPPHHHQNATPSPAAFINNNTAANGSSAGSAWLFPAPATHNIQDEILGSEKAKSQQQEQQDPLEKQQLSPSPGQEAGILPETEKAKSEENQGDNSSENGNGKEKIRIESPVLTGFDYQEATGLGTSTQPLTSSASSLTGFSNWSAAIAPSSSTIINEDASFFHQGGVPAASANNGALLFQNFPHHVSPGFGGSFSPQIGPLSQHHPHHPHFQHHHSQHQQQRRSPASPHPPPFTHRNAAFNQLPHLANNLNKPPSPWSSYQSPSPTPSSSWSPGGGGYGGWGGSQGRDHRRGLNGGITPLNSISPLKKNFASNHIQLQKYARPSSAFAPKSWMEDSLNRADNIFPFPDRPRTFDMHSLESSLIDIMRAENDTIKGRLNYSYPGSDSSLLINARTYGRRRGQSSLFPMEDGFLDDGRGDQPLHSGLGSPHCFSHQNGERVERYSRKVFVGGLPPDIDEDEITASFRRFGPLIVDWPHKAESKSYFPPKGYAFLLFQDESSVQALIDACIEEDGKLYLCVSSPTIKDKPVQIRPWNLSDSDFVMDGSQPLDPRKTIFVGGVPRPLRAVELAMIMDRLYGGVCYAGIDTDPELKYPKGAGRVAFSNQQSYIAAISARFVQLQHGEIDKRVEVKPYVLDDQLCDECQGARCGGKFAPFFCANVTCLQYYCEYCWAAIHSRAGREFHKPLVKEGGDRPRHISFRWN
UniProt Q8N137: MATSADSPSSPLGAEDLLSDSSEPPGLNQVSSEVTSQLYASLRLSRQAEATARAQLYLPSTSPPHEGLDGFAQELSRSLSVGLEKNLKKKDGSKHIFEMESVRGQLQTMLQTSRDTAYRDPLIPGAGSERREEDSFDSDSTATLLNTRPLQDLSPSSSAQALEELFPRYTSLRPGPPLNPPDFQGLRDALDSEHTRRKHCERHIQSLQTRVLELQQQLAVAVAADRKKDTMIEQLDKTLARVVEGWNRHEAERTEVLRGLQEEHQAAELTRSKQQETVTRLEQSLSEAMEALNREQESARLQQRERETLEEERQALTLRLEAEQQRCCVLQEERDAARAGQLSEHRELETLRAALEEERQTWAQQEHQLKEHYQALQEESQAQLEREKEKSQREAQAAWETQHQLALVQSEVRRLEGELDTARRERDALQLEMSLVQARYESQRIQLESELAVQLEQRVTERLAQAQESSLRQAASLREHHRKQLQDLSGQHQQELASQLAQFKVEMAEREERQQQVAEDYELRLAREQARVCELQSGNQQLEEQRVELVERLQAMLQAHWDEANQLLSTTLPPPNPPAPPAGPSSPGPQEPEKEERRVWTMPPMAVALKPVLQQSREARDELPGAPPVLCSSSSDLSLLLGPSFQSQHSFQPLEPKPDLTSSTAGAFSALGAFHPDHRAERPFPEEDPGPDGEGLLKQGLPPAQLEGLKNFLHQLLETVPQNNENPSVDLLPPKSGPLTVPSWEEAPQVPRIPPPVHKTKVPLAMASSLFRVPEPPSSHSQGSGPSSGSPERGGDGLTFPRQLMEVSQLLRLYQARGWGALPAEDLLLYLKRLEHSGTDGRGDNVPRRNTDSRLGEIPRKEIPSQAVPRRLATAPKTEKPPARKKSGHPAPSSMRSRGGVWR
UniProt Q14061: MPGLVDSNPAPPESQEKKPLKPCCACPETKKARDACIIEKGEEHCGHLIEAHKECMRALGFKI
UniProt Q86WW8: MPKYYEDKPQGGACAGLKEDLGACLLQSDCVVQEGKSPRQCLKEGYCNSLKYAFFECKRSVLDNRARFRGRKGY
UniProt Q99715: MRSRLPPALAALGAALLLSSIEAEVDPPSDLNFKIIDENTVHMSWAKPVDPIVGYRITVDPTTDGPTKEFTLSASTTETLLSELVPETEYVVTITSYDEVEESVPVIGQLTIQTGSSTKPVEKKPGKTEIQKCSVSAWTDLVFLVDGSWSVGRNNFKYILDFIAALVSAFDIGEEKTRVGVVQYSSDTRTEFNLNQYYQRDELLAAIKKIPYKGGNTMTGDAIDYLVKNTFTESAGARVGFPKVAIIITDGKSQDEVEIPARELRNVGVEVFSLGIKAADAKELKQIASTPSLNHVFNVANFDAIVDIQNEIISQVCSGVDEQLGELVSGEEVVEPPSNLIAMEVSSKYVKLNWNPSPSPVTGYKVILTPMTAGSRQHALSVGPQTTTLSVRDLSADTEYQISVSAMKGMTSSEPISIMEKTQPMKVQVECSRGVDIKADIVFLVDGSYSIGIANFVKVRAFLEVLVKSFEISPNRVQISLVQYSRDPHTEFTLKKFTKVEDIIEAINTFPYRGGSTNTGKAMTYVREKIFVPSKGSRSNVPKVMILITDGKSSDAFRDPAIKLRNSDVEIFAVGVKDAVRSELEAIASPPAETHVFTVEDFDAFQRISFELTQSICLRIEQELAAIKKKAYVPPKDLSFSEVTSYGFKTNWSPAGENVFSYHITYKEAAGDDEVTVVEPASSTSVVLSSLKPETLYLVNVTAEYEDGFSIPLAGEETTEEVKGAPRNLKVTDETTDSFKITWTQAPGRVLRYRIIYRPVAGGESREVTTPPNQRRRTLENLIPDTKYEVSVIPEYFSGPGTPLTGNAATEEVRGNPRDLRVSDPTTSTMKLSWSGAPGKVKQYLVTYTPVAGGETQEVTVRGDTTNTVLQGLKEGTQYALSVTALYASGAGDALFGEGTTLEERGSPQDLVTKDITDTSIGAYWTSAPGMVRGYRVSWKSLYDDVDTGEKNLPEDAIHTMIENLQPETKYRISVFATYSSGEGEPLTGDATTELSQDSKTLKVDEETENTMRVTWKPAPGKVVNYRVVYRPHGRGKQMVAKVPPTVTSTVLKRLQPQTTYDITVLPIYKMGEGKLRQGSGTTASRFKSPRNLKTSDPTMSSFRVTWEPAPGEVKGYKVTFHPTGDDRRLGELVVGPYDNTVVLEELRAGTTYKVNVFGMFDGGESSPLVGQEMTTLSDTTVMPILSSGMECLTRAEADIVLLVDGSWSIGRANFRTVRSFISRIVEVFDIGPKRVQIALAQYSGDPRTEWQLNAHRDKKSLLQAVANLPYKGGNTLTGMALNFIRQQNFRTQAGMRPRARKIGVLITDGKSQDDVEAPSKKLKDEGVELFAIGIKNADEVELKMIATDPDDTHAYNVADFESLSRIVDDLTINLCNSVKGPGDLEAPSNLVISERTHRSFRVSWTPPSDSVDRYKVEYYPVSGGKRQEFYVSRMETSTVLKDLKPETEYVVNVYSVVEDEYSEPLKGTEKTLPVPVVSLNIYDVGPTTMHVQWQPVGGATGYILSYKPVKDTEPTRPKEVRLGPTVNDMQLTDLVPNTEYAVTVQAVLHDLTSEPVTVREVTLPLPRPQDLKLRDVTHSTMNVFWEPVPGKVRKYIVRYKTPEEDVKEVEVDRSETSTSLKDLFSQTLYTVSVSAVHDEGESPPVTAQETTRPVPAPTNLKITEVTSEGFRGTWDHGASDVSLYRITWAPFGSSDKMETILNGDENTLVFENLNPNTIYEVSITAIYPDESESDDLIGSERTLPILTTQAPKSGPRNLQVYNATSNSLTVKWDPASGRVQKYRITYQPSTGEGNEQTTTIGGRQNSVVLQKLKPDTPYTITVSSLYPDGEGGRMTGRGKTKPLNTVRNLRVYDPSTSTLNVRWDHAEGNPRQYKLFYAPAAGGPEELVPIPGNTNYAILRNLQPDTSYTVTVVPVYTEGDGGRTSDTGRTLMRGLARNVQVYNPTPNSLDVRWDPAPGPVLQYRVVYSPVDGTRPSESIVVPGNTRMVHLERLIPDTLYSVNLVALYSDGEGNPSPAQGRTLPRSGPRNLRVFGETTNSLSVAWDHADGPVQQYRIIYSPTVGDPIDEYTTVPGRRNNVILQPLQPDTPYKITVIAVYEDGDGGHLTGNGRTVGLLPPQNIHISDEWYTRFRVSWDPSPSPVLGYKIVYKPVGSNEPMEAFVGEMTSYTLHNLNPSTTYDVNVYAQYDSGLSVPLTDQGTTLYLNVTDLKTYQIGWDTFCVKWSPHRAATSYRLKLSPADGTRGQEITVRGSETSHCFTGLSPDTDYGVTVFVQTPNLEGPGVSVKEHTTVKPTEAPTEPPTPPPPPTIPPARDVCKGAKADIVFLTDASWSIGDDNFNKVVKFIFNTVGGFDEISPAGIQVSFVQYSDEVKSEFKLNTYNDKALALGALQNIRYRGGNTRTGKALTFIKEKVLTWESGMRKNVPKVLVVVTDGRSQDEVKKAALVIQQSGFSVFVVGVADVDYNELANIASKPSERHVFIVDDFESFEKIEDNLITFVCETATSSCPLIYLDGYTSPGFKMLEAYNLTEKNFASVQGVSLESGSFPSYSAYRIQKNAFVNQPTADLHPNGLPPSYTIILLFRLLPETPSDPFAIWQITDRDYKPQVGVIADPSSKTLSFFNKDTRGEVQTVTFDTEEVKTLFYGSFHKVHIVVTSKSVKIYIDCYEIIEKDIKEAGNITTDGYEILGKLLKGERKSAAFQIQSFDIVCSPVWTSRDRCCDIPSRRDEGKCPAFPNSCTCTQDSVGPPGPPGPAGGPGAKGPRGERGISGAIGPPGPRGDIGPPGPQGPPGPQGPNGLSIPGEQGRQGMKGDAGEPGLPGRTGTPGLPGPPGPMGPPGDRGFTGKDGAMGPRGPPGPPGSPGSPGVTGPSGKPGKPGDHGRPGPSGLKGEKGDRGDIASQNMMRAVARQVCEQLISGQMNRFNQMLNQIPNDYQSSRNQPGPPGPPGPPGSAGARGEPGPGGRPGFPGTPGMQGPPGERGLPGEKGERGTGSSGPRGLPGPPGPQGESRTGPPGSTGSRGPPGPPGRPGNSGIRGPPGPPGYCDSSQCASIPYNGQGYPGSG
UniProt Q9UI42: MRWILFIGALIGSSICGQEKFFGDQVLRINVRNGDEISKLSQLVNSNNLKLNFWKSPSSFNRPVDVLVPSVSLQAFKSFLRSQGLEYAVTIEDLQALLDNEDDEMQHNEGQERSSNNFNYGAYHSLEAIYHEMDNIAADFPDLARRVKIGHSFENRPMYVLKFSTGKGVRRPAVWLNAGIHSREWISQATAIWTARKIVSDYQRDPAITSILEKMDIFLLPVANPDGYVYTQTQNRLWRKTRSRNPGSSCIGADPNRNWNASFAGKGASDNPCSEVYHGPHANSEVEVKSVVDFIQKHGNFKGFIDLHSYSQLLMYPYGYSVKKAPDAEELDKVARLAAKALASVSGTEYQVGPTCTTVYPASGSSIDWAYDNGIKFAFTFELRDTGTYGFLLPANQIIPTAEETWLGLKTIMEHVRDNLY
UniProt P12074, whole entry, looked up: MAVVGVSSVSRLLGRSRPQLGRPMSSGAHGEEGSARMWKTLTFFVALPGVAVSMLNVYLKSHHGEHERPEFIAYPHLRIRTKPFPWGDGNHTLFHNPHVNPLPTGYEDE
UniProt P24311, whole entry, looked up: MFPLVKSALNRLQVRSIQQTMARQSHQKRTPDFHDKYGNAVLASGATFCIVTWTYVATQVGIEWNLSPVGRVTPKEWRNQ

Holding throughout (test): log2 fold change, soluble protein after heating vs DMSO (PISA); higher = thermal stabilisation; K562 lysate, 10 uM; active = over 0.2 and 3.5 SD of the protein, either way, in both replicates (recomputed)
Compound in assay [1]: CC(=O)c1cnc2ccc(-c3cc(Cl)c(O)c(Cl)c3)nc2c1N[C@H]1CC[C@H](CN(C)C)CC1
The gist of the method:
(§1)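 Log-two fold change in thermal stability relative to solvent controls is reported from duplicates. For each sample, crude K562 extract from dounce-homogenised pellets in PBS pH 7.4 with 1 mM MgCl2, at 1 mg/mL protein, was treated with 10 μM compound for 30 min. Aliquots heated for 3 min across 48°C-58°C were pooled, brought to 0.5% NP-40 at 4°C and cleared at 21,000xg for 90 min. The supernatant was quantified by TMTpro 16plex LC-MS/MS with channel sums equalised.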

Compound in assay [2]: CC(C)(C)Cn1c(N)nc2ccc(-c3[nH]c(C(C)(C)C)nc3-c3ccc(F)cc3)nc21 [ralimetinib]
The essentials:
as §1

Compound in assay [3]: CC(C)(O)CC(=O)NCCn1ccc2ncnc(Nc3ccc(Oc4cccc(C(F)(F)F)c4)c(Cl)c3)c21
The gist of the method:
as §1

Compound in assay [4]: CC(C)C1=C2N=C(C=C(N2N=C1)NCC3=CC=CC=C3)NCCCCCCN
The essentials:
as §1

Compound in assay [5]: CC1=C(C2=C(C=C1)C(=O)C3=CC=CC=C3N2CCCN)C
The essentials: as §1

Compound in assay [6]: CC1=C(C=C(C=C1)NC(=O)C2=CC(=CC=C2)C(C)(C)C#N)NC3=CC4=C(C=C3)N=CN(C4=O)C
The essentials: as §1

Compound in assay [7]: CC1=C(C=C(C=C1)NC(=O)C2=CC(=CC=C2)N(C)C)NC(=O)C3=CC=C(C=C3)O
The essentials:
as §1

Compound in assay [8]: CC1=CC=C(C=C1)SC2=C3C=C(SC3=CN=C2)C(=O)N
The gist of the method:
as §1

Compound in assay [9]: CC1=C(C(CC(=O)N1)C2=CC=C(C=C2)C(F)(F)F)C(=O)NC3=C(C=C4C(=C3)C=NN4)F
The essentials:
as §1

Compound in assay [10]: C=CC(=O)N1CCC[C@@H](n2nc(-c3ccc(Oc4ccccc4)cc3)c3c(N)ncnc32)C1 [ibrutinib]
The essentials: as §1

As to CNNM2 (UniProt Q9H8M5), the log2 fold change in assay [1] is inactive: 0.004; in assay [2], inactive: 0.31; in [3], active: 0.348; in assay [4], inactive: 0.048; in [5], inactive: -0.031; in assay [6], inactive: -0.054. Also, the log2 fold change is inactive: -0.157 in assay [7] and inactive: -0.015 in assay [8].

On to CNOT7 (UniProt H0YBT3), for which the log2 fold change was inactive: -0.101 in [2], inactive: -0.059 in assay [3], inactive: -0.026 in assay [6] and inactive: 0.074 in assay [7].

Take COX14 (UniProt Q96I36): the log2 fold change is inactive: -0.001 in [1]; inactive: 0.018 in assay [4]; inactive: -0.047 in assay [9]; inactive: -0.088 in [6]; inactive: -0.033 in assay [8].

Regarding CPTP (UniProt Q5TA50), the log2 fold change was inactive: 0.031 in [2]; inactive: -0.12 in assay [3]; inactive: 0.001 in assay [4]; inactive: 0.106 in [9]; inactive: -0.138 in assay [5]; inactive: -0.023 in assay [6]. For the same target, the log2 fold change in assay [7] is inactive: 0.08.

With CPEB4 (UniProt Q17RY0), the log2 fold change was inactive: 0.018 in assay [10]; inactive: 0.006 in [1]; inactive: 0.121 in assay [2]; inactive: 0.16 in [3]; inactive: -0.023 in [4]; inactive: -0.028 in assay [9]. Moreover, the log2 fold change in assay [5] is inactive: -0.065; in assay [7], inactive: -0.076; in [8] it was inactive: 0.093.

With CNTROB isoform 2 (UniProt Q8N137), the log2 fold change in [4] is inactive: -0.166; in [5], inactive: 0.175.

As to COX17 (UniProt Q14061), the log2 fold change in [1] is inactive: -0.041; in assay [4], inactive: -0.069; in [9], inactive: 0.031; in assay [6], inactive: -0.187; in [8] it was inactive: 0.042.

On to COPS3 isoform 2 (UniProt Q9UNS2), for which the results for the log2 fold change in [1], in assay [9] and in assay [8] were inactive: 0.173, inactive: -0.217 and inactive: -0.007, respectively.

Regarding COL6A3 (UniProt P12111), the log2 fold change in [10] is inactive: -0.087; in [2], inactive: 0.174; in [3], inactive: -0.132; in assay [4], inactive: 0.047; in assay [9] it was inactive: -0.066; in assay [5], inactive: -0.099. The values for the log2 fold change in [6] and in assay [7] were inactive: -0.021 and active: -0.54, respectively.

CNRIP1 (UniProt Q96F85): the log2 fold change in assay [10] was inactive: 0.321; in assay [1] it was inactive: 0.045; in [2], inactive: 0.112; in assay [3] it was inactive: -0.009; in assay [4], inactive: -0.016; in assay [5] it was inactive: 0.064. Also, the log2 fold change in [6] was inactive: 0.128; in [7], inactive: 0.182; in assay [8] it was inactive: -0.075.

For COA5 (UniProt Q86WW8), the log2 fold change was inactive: 0.005 in assay [10]; inactive: 0.016 in assay [2]; inactive: -0.13 in assay [3]; inactive: 0 in [4]; inactive: 0.02 in assay [5]; inactive: 0.018 in assay [6]. In assay [7], the log2 fold change is inactive: 0.052.

Regarding COL12A1 (UniProt Q99715), the log2 fold change was inactive: 0.72 in assay [1]; inactive: 0.024 in assay [4]; inactive: -0.224 in [5]; active: 1.57 in assay [6]; inactive: 0.005 in assay [8].

Consider CNEP1R1 isoform 2 (UniProt Q8N9A8), for which the log2 fold change in assay [10] is inactive: -0.168; in assay [9], inactive: 0.1.

Turning to CNNM1 (UniProt Q9NRU3), the figures for the log2 fold change in assay [4], in assay [9] and in assay [5] were inactive: -0.012, inactive: 0.069 and inactive: -0.142, respectively.

CPA4 (UniProt Q9UI42): the log2 fold change in assay [10] is inactive: -0.087; in [1], inactive: -0.245; in assay [2], inactive: -0.099; in assay [3], inactive: 0.124; in [4] it was inactive: 0.184; in assay [6] it was inactive: 0.05. For the same target, the values for the log2 fold change in [7] and in [8] were inactive: 0.074 and inactive: -0.525, respectively.

As for COLEC11 isoform 10 (UniProt Q9BWP8), the log2 fold change was inactive: 0.119 in [10]; inactive: 0.071 in assay [2]; inactive: 0.006 in assay [3]; inactive: 0 in [4]; inactive: 0 in assay [5]; inactive: 0.016 in [7].

Turning to COX6A1 (UniProt P12074), the log2 fold change is inactive: -0.023 in assay [10]; inactive: -0.075 in [1]; inactive: -0.002 in assay [2]; inactive: -0.004 in assay [3]; inactive: -0.033 in assay [4]; inactive: 0.01 in [9]. The log2 fold change in assay [5] was inactive: -0.063; in [6], inactive: 0.05; in assay [7], inactive: 0.019; in [8] it was inactive: 0.171.

For the target CRACR2B (UniProt Q8N4Y2), the log2 fold change in [4] was inactive: -0.078; in assay [5], inactive: 0.215.

For COX7B (UniProt P24311), the log2 fold change was inactive: -0.016 in assay [1]; inactive: 0.014 in [2]; inactive: -0.09 in [3]; inactive: 0.008 in assay [4]; inactive: -0.046 in assay [9]; inactive: -0.144 in assay [5]. Moreover, the log2 fold change in assay [6] was inactive: 0.018; in assay [7], inactive: 0.039; in [8], inactive: 0.02.

The values are drawn from the supplement of paper PMC10849652.
